Data: PubChem BioAssay AID2685 (National Center for Advancing Translational Sciences (NCATS), 2010)
The list shows a part of the results. Further columns of the screen follow, without active or inactive calls. Most of these compounds were active or inconclusive in the main read-out, so they are no random draw. Words in brackets tell the shape of the fitted curve; partial curves, single points and poor fits give uncertain potencies.

Assay: qHTS Assay for Lipid Storage Modulators in Drosophila S3 Cells;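 for cell number change: cells counted by Cell Tracker Red CMTPX staining in the red channel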
Conditions: BODIPY lipid droplet fluorescence, 18-24 h; for cell number change: measured here: cell count max response, cells fed with added oleic acid
Summary of the method: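 Laser-scanning cytometry quantifies lipid droplet accumulation (500–530 nm total intensity; droplet/cell object ratio) in oleic acid-fed (400 uM added) Drosophila S3 cells treated with a concentration series. 20 uM Triacsin C defined 100% inhibition.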

[1] = measured here: cell number channel AC50, cells fed with added oleic acid
[2] = measured here: lipid fluorescence (Fed channel) AC50, cells fed with added oleic acid

Row | Compound | cell number change | AC50 [1] | AC50 [2]
1 | CC(OC(=O)Cc1c[nH]c2ccccc12)C(=O)Nc1ccccc1[N+](=O)[O-] (stereo unspecified) | 88% | 10.3 µM [rising, partial curve] | –
2 | CSCCOC(=O)C1=C(C)NC(=O)NC1c1ccc2c(c1)OCO2 (stereo unspecified) | -8.07% | – | 2.91 µM [falling, single point]
3 | CC(=O)c1ccc(N2CCN(C(=O)/C=C/c3ccc(S(=O)(=O)NCc4ccco4)cc3)CC2)cc1 | – | 0.116 µM [rising, single point] | –
4 | O=C(CN1CCN(Cc2cccc(Cl)c2)C1=O)NCc1ccccn1 | 9.09% | – | –
5 | CN(C)C1(CNC(=O)C2CCC(=O)N(CCc3ccc(Cl)cc3)C2)CCCCC1 (stereo unspecified) | 18.2% | – | –
6 | C[N+]1(CC(=O)OCCCC2CCCCC2)CCCC1 | -3.39% | – | 0.517 µM [falling, full curve]
7 | Cc1cc(C)nc(N2N=C(C(C)(C)C)CC2=O)n1 | -76% | 13 µM [falling, partial curve, poor fit] | 0.13 µM [falling, full curve, poor fit]
8 | CCCNC(=O)NC(=O)CSc1ccc(C)cc1C | 57.8% | 3.26 µM [rising, full curve] | 3.26 µM [rising, single point]
9 | O=C1c2ccccc2C(=O)N1Cc1nc2ccccc2c(=O)n1CCCn1ccnc1 | – | 3.66 µM [falling, single point] | –
10 | CCN(CCCNC(=O)C1CCN(S(=O)(=O)N2CCOCC2)CC1)c1cccc(C)c1 | 1.51% | – | –
11 | Cc1ccccc1NC(=S)NCCO | -101% | 20.6 µM [falling, single point] | 29.1 µM [falling, single point]
12 | O=C(O)C1CCCCC1C(=O)Nc1ccc(-c2ccccc2)cc1 (stereo unspecified) | -1.59% | – | –
13 | O=C(Nc1ccsc1C(=O)O)c1cccc(Oc2ccccc2)c1 | -23.4% | – | 7.31 µM [falling, partial curve, poor fit]
14 | CC(C)(C)NC(=O)CN1C(=O)/C(=C/c2ccccc2)SC1=S | 25.1% | – | 0.146 µM [rising, full curve, poor fit]
15 | CCC(=O)Nc1cccc(NC(=O)CSc2nnc(-c3ccc(NS(C)(=O)=O)cc3)n2C)c1 | -7.58% | 0.651 µM [falling, single point] | 0.0164 µM [falling, full curve, poor fit]
16 | CN1CCN(CCCNC(=O)C2CC(=O)N(C3CCCCC3)C2)CC1 (stereo unspecified) | -13.5% | 6.51 µM [falling, single point] | –
17 | CCOC(=O)C1CCCN(C2CC(=O)N(c3ccc(C)c(C)c3)C2=O)C1 (stereo unspecified) | 4.79% | – | 29.1 µM [rising, single point]
18 | CN(CC(=O)Nc1ccc(Cl)c(C(F)(F)F)c1)C(=O)C1CC(=O)N(Cc2ccco2)C1 (stereo unspecified) | – | – | 6.51 µM [falling, single point]
19 | CN1CC(=O)Nc2ccc(F)cc2C1=O | – | 1.64 µM [falling, partial curve, poor fit] | 6.51 µM [falling, partial curve, poor fit]
20 | CCOC(=O)N1CCN(C(=O)CCN2C(=O)c3ccccc3S2(=O)=O)CC1 | -18.1% | – | –

3 successive compounds out of the list so far, quoted:
Row | Compound | cell number change | AC50 [1] | AC50 [2]
11 | Cc1ccccc1NC(=S)NCCO | -101% | 20.6 µM [falling, single point] | 29.1 µM [falling, single point]
12 | O=C(O)C1CCCCC1C(=O)Nc1ccc(-c2ccccc2)cc1 (stereo unspecified) | -1.59% | – | –
13 | O=C(Nc1ccsc1C(=O)O)c1cccc(Oc2ccccc2)c1 | -23.4% | – | 7.31 µM [falling, partial curve, poor fit]

The results go on.

Row | Compound | cell number change | AC50 [1] | AC50 [2]
21 | COC(=O)C1=C(C)NC(C)=C(C(=O)OCC2CCCO2)C1c1ccc(Cl)c([N+](=O)[O-])c1 (stereo unspecified) | -7.51% | – | –
22 | CC(=O)N(c1nc(CCl)cs1)c1ccc(C)cc1C | -36% | 2.59 µM [falling, partial curve, poor fit] | 6.51 µM [falling, single point]
23 | Cc1nc2cc(S(=O)(=O)N(C)C)ccc2n1-c1ccccc1 | -19.1% | – | 16.4 µM [rising, single point]
24 | Clc1ccccc1CO/N=C1\CCCc2nonc21 | 1.97% | – | 8.2 µM [rising, partial curve, poor fit]
25 | Cc1ccc(NC(=O)CSc2nccn2C)cc1S(=O)(=O)N1CCOCC1 | 9.5% | – | –
26 | COC(=O)c1ccc(C(=O)OC)c(NC(=O)C2CC2)c1 | -41.9% | 7.31 µM [falling, partial curve] | 1.84 µM [falling, full curve]
27 | O=c1nc2ccccc2c2n1CC(CN1CCN(c3ccc(F)cc3)CC1)N2 (stereo unspecified) | 59.3% | 16.4 µM [rising, partial curve, poor fit] | 23.1 µM [rising, partial curve]
28 | Cc1cc(Nc2ccc(Br)cc2)nc(-c2ccccc2O)n1 | – | – | 29.1 µM [falling, single point]
29 | O=C(N/N=C/C(Br)=C\c1ccccc1)c1ccc2nc[nH]c2c1 | -43.4% | 5.8 µM [falling, full curve] | –
30 | Cc1c(C(=O)OCC(=O)Nc2c(C)n(C)n(-c3ccccc3)c2=O)oc2ccccc12 | -8.31% | – | –
31 | Cc1c(Cl)cccc1NC(=S)NC1CCCC1 | -3.63% | – | 6.51 µM [falling, full curve, poor fit]
32 | S=c1[nH]c(-c2ccc(Cl)cc2)cs1 | 38.1% | – | –
33 | Cc1cc(C)c(C#N)c(SCc2ccc(C#N)cc2)n1 | 9.22% | – | 4.11 µM [rising, partial curve, poor fit]
34 | COc1ccc(CCNC(=O)C(=O)NCC2OCCN2S(=O)(=O)c2cc(F)ccc2F)cc1 (stereo unspecified) | 43.2% | 11.6 µM [rising, partial curve] | –
35 | Cc1ccc(CSCCNC(=O)CN(c2cc(C)ccc2C)S(C)(=O)=O)cc1 | 8.92% | 0.082 µM [falling, full curve, poor fit] | 0.103 µM [falling, full curve, poor fit]
36 | FC(F)(F)COc1nc(N2CCCCC2)nc(N2CCNCC2)n1 | -156% | 23.1 µM [falling, partial curve] | 0.651 µM [falling, full curve, poor fit]
37 | O=C(O)C1CC=C(Cl)CC1C(=O)NCc1ccccc1 (stereo unspecified) | 7.82% | – | –
38 | CCNC(=O)COc1ncnc2scc(-c3ccc(F)cc3)c12 | – | 0.517 µM [falling, full curve] | 0.366 µM [falling, partial curve, poor fit]
39 | Cc1nn(C)c(Cl)c1CN1CCCC(C(=O)Nc2cccc(-n3cccn3)c2)C1 (stereo unspecified) | -3.23% | – | 0.00461 µM [rising, full curve, poor fit]
40 | CCC(C)C(NC(=O)C1CCC(C)CC1)C(=O)Nc1cc(OC)ccc1OC (stereo unspecified) | -31.5% | 29.1 µM [falling, single point] | 29.1 µM [falling, single point]

Complete entries as entered above.
Cc1cc(C)nc(N2N=C(C(C)(C)C)CC2=O)n1 as listed: cell number change: -76%; AC50 [1]: 13 µM [falling, partial curve, poor fit]; AC50 [2]: 0.13 µM [falling, full curve, poor fit]
O=C1c2ccccc2C(=O)N1Cc1nc2ccccc2c(=O)n1CCCn1ccnc1 as listed: AC50 [1]: 3.66 µM [falling, single point]

Continued.

Row | Compound | cell number change | AC50 [1] | AC50 [2]
41 | Cc1c(OC(C)C(=O)N[C@@H](Cc2ccccc2)C(=O)O)ccc2c3c(c(=O)oc12)CCCC3 (stereo partly specified) | 11.5% | 0.0731 µM [rising, full curve, poor fit] | –
42 | O=[N+]([O-])c1ccccc1S(=O)(=O)Oc1ccccc1/C=N/n1cnnc1 | 36.7% | 29.1 µM [rising, single point] | –
43 | O=C1c2ccccc2NC(c2ccco2)N1NS(=O)(=O)c1ccccc1 (stereo unspecified) | 2.15% | – | 2.31 µM [rising, partial curve]
44 | CCCCNC(=O)CCC(=O)Nc1ccc2nc(N3CCOCC3)cc(C)c2c1 | 152% | 29.1 µM [rising, single point] | –
45 | CC1CCN(c2oc(-c3ccccc3Cl)nc2C#N)CC1 | -10.8% | – | –
46 | CCN(CC)S(=O)(=O)c1cc(OC)c(C)cc1C | 38.6% | – | –
47 | O=c1c2[nH]c3ccc(F)cc3c2nc2n1CCS2 | 21.1% | – | 6.51 µM [rising, single point]
48 | NNC(=O)c1n[nH]c(=O)c2ccccc12 | 42.1% | 29.1 µM [rising, single point] | –
49 | CCOC(=O)c1c(C)[nH]c(C(=O)OCC(=O)N2c3ccccc3CC2C)c1C (stereo unspecified) | 9.9% | – | 0.461 µM [rising, full curve]
50 | Cc1ccc(OCc2cc(C(=O)NC(C)Cc3cccnc3)no2)cc1C (stereo unspecified) | -1.47% | 6.51 µM [rising, single point] | 11.6 µM [falling, single point]
51 | CCOC(=O)c1cnc(SCc2nc(N)nc(Nc3ccc(C)cc3)n2)nc1N | -37% | 20.6 µM [falling, single point] | 0.411 µM [rising, full curve, poor fit]
52 | O=C(O)c1cccc(NC2=C(n3nnc4ccccc43)C(=O)c3ccccc3C2=O)c1 | 19.8% | 0.291 µM [rising, full curve, poor fit] | 5.8 µM [falling, single point]
53 | Cc1nnc(SCC(=O)NCC2COc3ccccc3O2)s1 (stereo unspecified) | 13.9% | 0.92 µM [falling, full curve] | 0.92 µM [falling, full curve]
54 | Cc1cccc(Sc2nc(-c3ccccc3)ccc2C#N)c1 | -17% | – | –
55 | Cc1cccc(C)c1NC(=O)CSCC(=O)O | 0.297% | – | 4.11 µM [rising, full curve]
56 | CCC(=O)c1ccc(Oc2ccc(C(=O)c3ccc(C)cc3)cc2[N+](=O)[O-])cc1 | -9.79% | 0.146 µM [falling, full curve, poor fit] | –
57 | Cc1cccc(N(CC(=O)NC2CCCC2)C(=O)CCCC(=O)Nc2ccccn2)c1 | -0.955% | – | 29.1 µM [rising, single point]
58 | O=C1c2ccc([N+](=O)[O-])cc2S(=O)(=O)N1Cc1ccccc1 | -21.3% | – | 3.66 µM [falling, full curve]
59 | CCCCC(CC)COP(=O)(OCC(CC)CCCC)OCC(CC)CCCC (stereo unspecified) | 16.8% | – | 16.4 µM [rising, single point]
60 | COC(=O)C(C(=O)NCC1CCCO1)C1CCCC1 (stereo unspecified) | – | – | 5.8 µM [falling, single point]
